Some results were stated once for a whole list of compounds, not compound by compound.
Tested on: HT1080 cells
Assay: siRNA or Puc19 transfection combined with Taxel, cell viability by CCK8
Format: cell-based, human
Conditions: vs Contrl IC50 60 nM
Procedure: Method: HT1080 cells transfected with siRNAs that were derived from Puc19 DNA sequence and the siRNAs that targeting the corresponding genes that are the targets of the Puc19 derived siRNAs for 24 hours, then, treated with Taxel at 3, 10, 30, and 100 nM for 48 hours. After the 48 hours of Taxel treatment, cells in culture were changed to normal growth medium for 24 to 72 hours. Cell viability was monitored by CCK8 Kit every 24 hours. Data are normalized to % of untreated control cells. The siRNAs that used for this study includes siRNA#1, siRNA#2, siRHA#3, siRNA targeting TRPC6, SH3PXD2B, C6orf108, TTBK1, MAGI3, and TMEM182 as well as combination of siRNA#2+#3, and siRNA#1+#2+#3+#4+#5 (siRNAΣ1-5).

Row | Substance | decrease of taxel IC50 by transfection of the labelled DNA or siRNA
1 | siRHA#3: siRNA [SEQ ID #12] derived from pUC19 DNA sequence, targeting MAGI3 and/or TMEM182 (CUUUUAAAUUAAAAAUGAAGUUUUA; listed as RNA, chemistry not given here) | Over 2.5 fold
2 | siRNA#2: siRNA [SEQ ID #11] derived from the DNA sequence of pUC19, targeting SH3PXD2B (CAGGAAAGAACAUGUGAGCAAAAG; listed as RNA, chemistry not given here) | Over 2.5 fold

Reference: US8680129B2, “Compounds, composition, methods, targets for cancer therapy” (priority 2008, dated 2014)
